Data from PubChem BioAssay AID256 (DTP/NCI, 2004).
The list shows only some results of the screen, not a fair sample: it is rich in T/C values a quarter to a half above the control, in often repeated tests (any T/C) and in doses without a T/C. Further doses and runs are listed elsewhere. T/C is the treated group as % of the vehicle group. Some entries give survivors of the animals treated and no T/C: the source holds a T/C of zero for them, seemingly a mark for toxic or unscored doses. Some survivor counts are full or nearly so, which does not show that the dose was tolerated: survival well below the control is almost never listed, so the zero probably covers shortened survival too. Survivors were counted at the toxicity check, usually on the fifth day, unless a day is given; later deaths do not show. Schedule codes are those of the source, taken here to give the interval after Q, in days (D) or hours (H), and the number of doses after X. Some doses were run more than once; their values stand side by side, smallest first. Counts like (3×) say how often a value occurs here. For survival time, this PubChem deposit counts one and a half times the control or more as active, and values a quarter to a half above the control carry no call in these data; other NCI protocols may use other cut-offs. Some T/C values are followed by the survivors on the day toxicity was checked, most often the fifth; without a count, all were alive then.

System: CD2F1 mice, L1210 leukemia ip, survival T/C
Assay: NCI In Vivo Anticancer Drug Screen. Data for tumor model L1210 Leukemia (intraperitoneal) in CD2F1 (CDF1) mice
Settings: T/C endpoint: median survival time, higher T/C = longer survival
Method in brief: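 Implant tumor; dose compound or vehicle; measure endpoint in both groups; report treated divided by control.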

## O=NN(CCCl)C(=O)NCCCl
dose: 15.0 mg/kg/injection, schedule: Q01DX005 (ip), vehicle: saline + alcohol, evaluated on day 35
  T/C: 160 % of control
dose: 15.0 mg/kg/injection, schedule: Q01DX005 (ip), vehicle: saline + alcohol, evaluated on day 60
  T/C: 145 and 402 % of control
dose: 15.0 mg/kg/injection, schedule: Q01DX009 (ip), vehicle: saline + alcohol, evaluated on day 30
  T/C: 132, 136, 138 (2×), 145, 150 (2×), 158 (2×), 160 (2×), 172, 176, 184, 186, 187, 188 [5 of 6 alive], 204, 223, 230, 240, 259, 273, 308, 370, 375 % of control
dose: 15.0 mg/kg/injection, schedule: Q01DX009 (ip), vehicle: saline + alcohol, evaluated on day 35
  T/C: 145 % of control
dose: 15.0 mg/kg/injection, schedule: Q01DX009 (ip), vehicle: saline + alcohol, evaluated on day 60
  T/C: 143 and 144 % of control
dose: 20.0 mg/kg/injection, schedule: Q01DX001 (ip), vehicle: saline + alcohol, evaluated on day 7
  T/C: 196 and 228 % of control
dose: 20.0 mg/kg/injection, schedule: Q01DX001 (ip), vehicle: saline + alcohol, evaluated on day 9
  T/C: 183 % of control [8 of 9 alive]
dose: 20.0 mg/kg/injection, schedule: Q01DX001 (ip), vehicle: saline + alcohol, evaluated on day 30
  T/C: 127, 146, 160, 161, 168, 174, 179, 186 (2×), 190, 197 (2×), 219, 233, 237, 253, 308, 337, 348, 352, 361, 370 (4×), 375 % of control
dose: 20.0 mg/kg/injection, schedule: Q01DX001 (ip), vehicle: saline + alcohol, evaluated on day 35
  T/C: 160 % of control
dose: 20.0 mg/kg/injection, schedule: Q01DX001 (ip), vehicle: saline + alcohol, evaluated on day 45
  T/C: 256, 451, 535 % of control
dose: 20.0 mg/kg/injection, schedule: Q01DX001 (ip), vehicle: saline + alcohol, evaluated on day 60
  T/C: 182 and 722 % of control (2×)
dose: 30.0 mg/kg/injection, schedule: Q01DX001 (ip), vehicle: saline + alcohol, evaluated on day 7
  T/C: 216 and 223 % of control
dose: 30.0 mg/kg/injection, schedule: Q01DX001 (ip), vehicle: saline + alcohol, evaluated on day 9
  T/C: 211 % of control
dose: 30.0 mg/kg/injection, schedule: Q01DX001 (ip), vehicle: saline + alcohol, evaluated on day 45
  T/C: 535 and 548 % of control (2×)
dose: 30.0 mg/kg/injection, schedule: Q01DX001 (ip), vehicle: saline + alcohol, evaluated on day 60
  T/C: 722 % of control
dose: 30.0 mg/kg/injection, schedule: Q01DX005 (ip), vehicle: saline + alcohol, evaluated on day 30
  T/C: 98, 100, 101, 102 (2×), 103, 111, 114 (2×), 115, 117, 119, 120, 127, 128 (2×), 130, 133 (2×), 134, 136, 168, 283 % of control
dose: 30.0 mg/kg/injection, schedule: Q01DX005 (ip), vehicle: saline + alcohol, evaluated on day 35
  T/C: 114 % of control
dose: 30.0 mg/kg/injection, schedule: Q01DX005 (ip), vehicle: saline + alcohol, evaluated on day 60
  T/C: 96 and 101 % of control
dose: 30.0 mg/kg/injection, schedule: Q01DX005 (ip), vehicle: saline + alcohol
  survivor count: 6 of 6
dose: 30.0 mg/kg/injection, schedule: Q01DX005 (ip), vehicle: saline
  T/C: 148 % of control
dose: 30.0 mg/kg/injection, schedule: Q01DX009 (ip), vehicle: saline + alcohol, evaluated on day 30
  T/C: 88, 92, 94, 96, 97, 102 (3×), 103 (2×), 104, 105, 108, 112, 116 (2×), 121, 123 (3×), 124, 125, 126, 128, 131 % of control [5 of 6 alive]
dose: 30.0 mg/kg/injection, schedule: Q01DX009 (ip), vehicle: saline + alcohol, evaluated on day 35
  T/C: 111 % of control
dose: 30.0 mg/kg/injection, schedule: Q01DX009 (ip), vehicle: saline + alcohol, evaluated on day 60
  T/C: 104 and 107 % of control
dose: 30.0 mg/kg/injection, schedule: Q01DX009 (ip), vehicle: saline + alcohol
  survivor count: 6 of 6
dose: 30.0 mg/kg/injection, schedule: Q01DX009 (ip), vehicle: saline
  T/C: 127 % of control
dose: 40.0 mg/kg/injection, schedule: Q01DX001 (ip), vehicle: saline + alcohol, evaluated on day 6
  T/C: 188 and 219 % of control
dose: 40.0 mg/kg/injection, schedule: Q01DX001 (ip), vehicle: saline + alcohol, evaluated on day 7
  T/C: 192 and 223 % of control
dose: 40.0 mg/kg/injection, schedule: Q01DX001 (ip), vehicle: saline + alcohol, evaluated on day 9
  T/C: 241 % of control
dose: 40.0 mg/kg/injection, schedule: Q01DX001 (ip), vehicle: saline + alcohol, evaluated on day 30
  T/C: 188 [5 of 6 alive], 312, 322 (2×), 333 (2×), 337, 340, 348, 352, 361 (3×), 365, 370 (9×), 375 % of control (3×)
dose: 40.0 mg/kg/injection, schedule: Q01DX001 (ip), vehicle: saline + alcohol, evaluated on day 35
  T/C: 283 % of control
dose: 40.0 mg/kg/injection, schedule: Q01DX001 (ip), vehicle: saline + alcohol, evaluated on day 60
  T/C: 353 and 722 % of control
dose: 64.0 mg/kg/injection, schedule: Q01DX001 (ip), vehicle: saline + alcohol
  T/C: 144 % of control
dose: 80.0 mg/kg/injection, schedule: Q01DX001 (ip), vehicle: saline + alcohol, evaluated on day 30
  T/C: 90, 91, 93, 98, 112 (2×), 114, 123, 135, 166, 227, 322, 357, 361, 375 % of control
dose: 80.0 mg/kg/injection, schedule: Q01DX001 (ip), vehicle: saline + alcohol, evaluated on day 60
  T/C: 95 % of control
dose: 80.0 mg/kg/injection, schedule: Q01DX001 (ip), vehicle: saline + alcohol
  survivor count: 3 of 6, 4 of 6 (2×), 5 of 6 (2×), 6 of 6
